Data taken from PubChem BioAssay AID2685 (National Center for Advancing Translational Sciences (NCATS), 2010).
The list shows a part of the results. These are further read-outs of the screen, such as a control signal, another cell line or another target. No call is given for them. Most of these compounds were active or inconclusive in the main read-out, so they are no random draw. Potencies come from curve fits of mixed quality, noted in brackets.

Assay: qHTS Assay for Lipid Storage Modulators in Drosophila S3 Cells;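 for cell number change: cells counted by Cell Tracker Red CMTPX staining in the red channel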
Conditions: BODIPY lipid droplet fluorescence, 18-24 h; for cell number change: measured here: cell count max response, cells fed with added oleic acid
Outline: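 Drosophila S3 cells loaded with oleic acid (400 uM, as added) and compounds at several concentrations; lipid droplets imaged by 488-nm laser-scanning cytometry, 500–530 nm intensity and object ratio to cell channel. Percent activity normalized to 20 uM Triacsin C.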

[1] = measured here: lipid fluorescence (Fed channel) AC50, cells fed with added oleic acid
[2] = measured here: cell number channel AC50, cells fed with added oleic acid

Row | SMILES | AC50 [1] | cell number change [%] | AC50 [2]
1 | COc1ccc(S(=O)(=O)NCCSC(C)(C)C)cc1 | 0.13 µM [falling, full curve] |  | 
2 | CCOC(=O)N1CCN(C(=O)CC(C)S(=O)(=O)c2cc3c(cc2C)NC(=O)CO3)CC1 (stereo unspecified) | 1.84 µM [falling, partial curve] | -42.8 | 29.1 µM [falling, single point]
3 | O=C(NC1CCSc2ccccc21)c1ccccc1F (stereo unspecified) |  | 8.62 | 
4 | COc1ccccc1C(c1nnnn1C(C)C)N1CCN(C(=O)c2ccco2)CC1 (stereo unspecified) |  | 18.1 | 
5 | Clc1ccccc1CN1CCc2sccc2C1 | 16.4 µM [rising, single point] | -28.6 | 
6 | O=C(COC(=O)COc1ccccc1)NCCC1=CCCCC1 | 1.03 µM [falling, full curve, poor fit] | -19.5 | 
7 | COc1ccc(-c2cc(=Nc3c(C)n(C)n(-c4ccccc4)c3=O)c3ccccc3o2)cc1 | 0.92 µM [rising, full curve, poor fit] | 23.3 | 
8 | O=C1[C@@H]2C(Cc3ccc(O)cc3)NC3(C(=O)Nc4ccc(F)cc43)[C@@H]2C(=O)N1c1ccc(F)cc1 (stereo partly specified) | 29.1 µM [falling, single point] | 26.9 | 
9 | Clc1ccc2noc(-c3ccccc3)c2c1 |  | -31.6 | 4.61 µM [falling, partial curve, poor fit]
10 | CCOC(=O)C1=C(C)Nc2nc(SCC)[nH]c(=O)c2C1c1ccncc1 (stereo unspecified) |  | -2.53 | 
11 | CN(C(=O)COC(=O)c1cc(NS(=O)(=O)c2cc([N+](=O)[O-])ccc2Cl)ccc1O)C1CCCCC1 | 0.259 µM [rising, full curve, poor fit] | 1.5 | 
12 | COCCCNCCC(CCC(C)C)c1ccc2c(c1)OCO2 (stereo unspecified) |  | -3.87 | 
13 | CCOC(=O)CSc1nc2cccnc2n1C | 10.3 µM [falling, partial curve] | -17.9 | 
14 | CCOc1ccc(CCNC(=O)COC(=O)c2cc(OC)cc(OC)c2)cc1OCC | 29.1 µM [falling, partial curve, poor fit] | -59.3 | 
15 | CCC(C)(C)NC(=O)C(c1cccn1C)N(C(=O)Cn1nnc2ccccc21)c1ccc(OC)cc1OC (stereo unspecified) | 10.3 µM [falling, partial curve] | -20 | 
16 | CCOC(=O)C1(Cc2cccc(Cl)c2)CCCN(C(=O)CN2C(=O)CSC2=O)C1 (stereo unspecified) | 29.1 µM [falling, single point] | -25.2 | 0.164 µM [falling, full curve, poor fit]
17 | CC(=NCCc1ccccc1)C1=C(O)CSC1=O | 1.84 µM [falling, partial curve] | 10.1 | 

Reprinted at random: 2 entries already listed.
Row | SMILES | AC50 [1] | cell number change [%] | AC50 [2]
2 | CCOC(=O)N1CCN(C(=O)CC(C)S(=O)(=O)c2cc3c(cc2C)NC(=O)CO3)CC1 (stereo unspecified) | 1.84 µM [falling, partial curve] | -42.8 | 29.1 µM [falling, single point]
17 | CC(=NCCc1ccccc1)C1=C(O)CSC1=O | 1.84 µM [falling, partial curve] | 10.1 | 
